How the values were obtained:
[1] = test system: Pseudomonas aeruginosa; test: Antibacterial activity against Pseudomonas aeruginosa ATCC 9027 at 50 mg/ml after 24 hrs by disc diffusion method; assay type: functional, organism-based
[2] = test system: Candida albicans; test: Antifungal activity against Candida albicans ATCC 10231 at 10 mg/ml after 24 hrs by disc diffusion method; assay type: functional, organism-based

Sequence	inhibition zone (IZ) [1] [mm]	inhibition zone (IZ) [2] [mm]
GENTAMICIN	22	
NYSTATIN		20

From ChEMBL document CHEMBL2069265, “Synthesis and biological evaluation of optically active conjugated γ- and δ-lactone derivatives” (2012)
